These are yes or no findings as the source states them, for the method shown. Binding seen in cells or lysates may run through a third protein. A result given as binding can be weak or reduced; the word gives no strength. Each block holds one binder with its values, some of them ahead of it.
Assays:
[1] = molecular target: Angiopoietin-like 4 (human (endogenous in SKOV3, Hey-A8 and HUVEC)); assay: co-IP; HUVECs cultured with conditioned medium of Hey-A8 cells overexpressing ESM1 (binding decreased) or of SKOV3 cells with ESM1 knockdown (binding increased); Protein A/G agarose, RIPA washes, Western blot
[2] = molecular target: Angiopoietin-like 4 (human (endogenous in SKOV3, Hey-A8 and HUVEC)); assay: co-IP; anti-ANGPTL4 antibody, nuclear or cytoplasmic fraction of SKOV3 cells; Protein A/G agarose, pellets washed three times with RIPA buffer, Western blot; also SKOV3 cells treated with the JAK activator Colivelin (Fig. S6D: no significant effect on the binding)
[3] = molecular target: Angiopoietin-like 4 (human (endogenous in SKOV3, Hey-A8 and HUVEC)); assay: co-IP; Hey-A8 cells with ESM1 overexpression (interaction increased) and SKOV3 cells with ESM1 knockdown (interaction decreased); Protein A/G agarose, RIPA washes, Western blot

- binding [1]: binds
B1: vascular-endothelial cadherin (protein, UniProt P33151 48-784)
chain: DWIWNQMHIDEEKNTSLPHHVGKIKSSVSRKNAKYLLKGEYVGKVFRVDAETGDVFAIERLDRENISEYHLTAVIVDKDTGENLETPSSFTIKVHDVNDNWPVFTHRLFNASVPESSAVGTSVISVTAVDADDPTVGDHASVMYQILKGKEYFAIDNSGRIITITKSLDREKQARYEIVVEARDAQGLRGDSGTATVLVTLQDINDNFPFFTQTKYTFVVPEDTRVGTSVGSLFVEDPDEPQNRMTKYSILRGDYQDAFTIETNPAHNEGIIKPMKPLDYEYIQQYSFIVEATDPTIDLRYMSPPAGNRAQVIINITDVDEPPIFQQPFYHFQLKENQKKPLIGTVLAMDPDAARHSIGYSIRRTSDKGQFFRVTKKGDIYNEKELDREVYPWYNLTVEAKELDSTGTPTGKESIVQVHIEVLDENDNAPEFAKPYQPKVCENAVHGQLVLQISAIDKDITPRNVKFKFILNTENNFTLTDNHDNTANITVKYGQFDREHTKVHFLPVVISDNGMPSRTGTSTLTVAVCKCNEQGEFTFCEDMAAQVGVSIQAVVAILLCILTITVITLLIFLRRRLRKQARAHGKSVPEIHEQLVTYDEEGGGEMDTTSYDVSVLNSVRRGGAKPPRPALDARPSLYAQVQKPPRHAPGAHGGPGEMAAMIEVKKDEADHDGDGPPYDTLHIYGYEGSESIAESLSSLGTDSSDSDVDYDFLNDWGPRFKMLAELYGSDPREELLY

- binding [2]: binds
B2: Endothelial cell-specific molecule 1 (protein, UniProt Q9NQ30 20-184)
chain: WSNNYAVDCPQHCDSSECKSSPRCKRTVLDDCGCCRVCAAGRGETCYRTVSGMDGMKCGPGLRCQPSNGEDPFGEEFGICKDCPYGTFGMDCRETCNCQSGICDRGTGKCLKFPFFQYSVTKSSNRFVSLTEHDMASGDGNIVREEVVKENAAGSPVMRKWLNPR

- binding [3]: binds
B3: lipoprotein lipase (enzyme, UniProt P06858 28-475)
chain: ADQRRDFIDIESKFALRTPEDTAEDTCHLIPGVAESVATCHFNHSSKTFMVIHGWTVTGMYESWVPKLVAALYKREPDSNVIVVDWLSRAQEHYPVSAGYTKLVGQDVARFINWMEEEFNYPLDNVHLLGYSLGAHAAGIAGSLTNKKVNRITGLDPAGPNFEYAEAPSRLSPDDADFVDVLHTFTRGSPGRSIGIQKPVGHVDIYPNGGTFQPGCNIGEAIRVIAERGLGDVDQLVKCSHERSIHLFIDSLLNEENPSKAYRCSSKEAFEKGLCLSCRKNRCNNLGYEINKVRAKRSSKMYLKTRSQMPYKVFHYQVKIHFSGTESETHTNQAFEISLYGTVAESENIPFTLPEVSTNKTYSFLIYTEVDIGELLMLKLKWKSDSYFSWSDWWSSPGFAIQKIRVKAGETQKKVIFCSREKVSHLQKGKAPAVFVKCHDKSLNKKSG

From paper PMC10785435
